PubChem BioAssay AID1259308 | NCATS | 2017

Purpose: 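Candidate targets for better recombinant protein yield in mammalian cells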 (primary screen)
Cell system: human HEK293 embryonic kidney cells stably expressing firefly luciferase (HEK-CMV-Luc2-Hygro)
Knock-down reagent: single siRNA against human genes, 0.8 pmol siRNA per well
Time to read-out: 72 h
Read-out: 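Luciferase light (ONE-Glo) measured on one replicate plate set and viability (CellTiter-Glo) on the other, scaled to a negative control siRNA, with robust z-scores and luciferase per cell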
Scale: total luciferase, z-score: higher = more reporter protein produced
Hit rule: 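An siRNA counts as active if its total luciferase robust z-score exceeds 3; genes with two or more such siRNAs out of three were retested with fresh siRNAs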
Calls: active = raised luciferase; inactive = no rise
The deposit covers about 59,000 reagents; this is a random part of them. About 1,510 of them (2.6%) count as active. 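Calls use total luciferase alone and ignore viability, so some active siRNAs may act by altering cell number.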 The numbers tell different reagents against one gene apart. Not all columns of the deposit are shown.

gene symbol,reagent,"total luciferase, z-score",outcome
GXYLT2 (GeneID 727936),1,0.505,inactive
GXYLT2 (GeneID 727936),2,0.94,inactive
GXYLT2 (GeneID 727936),3,-0.0242,inactive
MRPS17 (GeneID 51373),1,-0.181,inactive
MRPS17 (GeneID 51373),2,0.562,inactive
MRPS17 (GeneID 51373),3,-1.66,inactive
FADS1 (GeneID 3992),1,0.974,inactive
FADS1 (GeneID 3992),2,-1.52,inactive
FADS1 (GeneID 3992),3,-0.334,inactive
PEAK1 (GeneID 79834),1,0.175,inactive
PEAK1 (GeneID 79834),2,2.78,inactive
PEAK1 (GeneID 79834),3,1.11,inactive
CARD18 (GeneID 59082),1,-1.09,inactive
CARD18 (GeneID 59082),2,-0.793,inactive
CARD18 (GeneID 59082),3,2.25,inactive
HSF4 (GeneID 3299),1,0.59,inactive
HSF4 (GeneID 3299),2,1.41,inactive
HSF4 (GeneID 3299),3,-0.903,inactive
GALNT14 (GeneID 79623),1,-1.21,inactive
GALNT14 (GeneID 79623),2,1.51,inactive
GALNT14 (GeneID 79623),3,0.358,inactive
TRIM24 (GeneID 8805),1,0.487,inactive
TRIM24 (GeneID 8805),2,-1.82,inactive
TRIM24 (GeneID 8805),3,0.429,inactive
NPIPB1P (GeneID 729602),1,0.286,inactive
NPIPB1P (GeneID 729602),2,0.112,inactive
NPIPB1P (GeneID 729602),3,0.505,inactive
LCK (GeneID 3932),1,0.27,inactive
LCK (GeneID 3932),2,-0.174,inactive
LCK (GeneID 3932),3,0.194,inactive
TNNI3K (GeneID 51086),1,0.762,inactive
TNNI3K (GeneID 51086),2,0.298,inactive
TNNI3K (GeneID 51086),3,0.336,inactive
PKN1 (GeneID 5585),1,-2.45,inactive
PKN1 (GeneID 5585),2,1.1,inactive
PKN1 (GeneID 5585),3,-0.0668,inactive
RNF217 (GeneID 154214),1,1.68,inactive
RNF217 (GeneID 154214),2,1.26,inactive
RNF217 (GeneID 154214),3,-0.0231,inactive

4 entries from above, ordered by “total luciferase, z-score”, descending:
gene symbol,reagent,"total luciferase, z-score",outcome
PEAK1 (GeneID 79834),2,2.78,inactive
PEAK1 (GeneID 79834),3,1.11,inactive
CARD18 (GeneID 59082),2,-0.793,inactive
CARD18 (GeneID 59082),1,-1.09,inactive
